Data: the supplement of paper PMC10849652
The other results are listed elsewhere or left out.

Chains of the proteins cited; added tags and fusions are not shown. Lines headed by an entry give the natural chain unless they say otherwise; changes in a name come on top.
UniProt Q9UBD5: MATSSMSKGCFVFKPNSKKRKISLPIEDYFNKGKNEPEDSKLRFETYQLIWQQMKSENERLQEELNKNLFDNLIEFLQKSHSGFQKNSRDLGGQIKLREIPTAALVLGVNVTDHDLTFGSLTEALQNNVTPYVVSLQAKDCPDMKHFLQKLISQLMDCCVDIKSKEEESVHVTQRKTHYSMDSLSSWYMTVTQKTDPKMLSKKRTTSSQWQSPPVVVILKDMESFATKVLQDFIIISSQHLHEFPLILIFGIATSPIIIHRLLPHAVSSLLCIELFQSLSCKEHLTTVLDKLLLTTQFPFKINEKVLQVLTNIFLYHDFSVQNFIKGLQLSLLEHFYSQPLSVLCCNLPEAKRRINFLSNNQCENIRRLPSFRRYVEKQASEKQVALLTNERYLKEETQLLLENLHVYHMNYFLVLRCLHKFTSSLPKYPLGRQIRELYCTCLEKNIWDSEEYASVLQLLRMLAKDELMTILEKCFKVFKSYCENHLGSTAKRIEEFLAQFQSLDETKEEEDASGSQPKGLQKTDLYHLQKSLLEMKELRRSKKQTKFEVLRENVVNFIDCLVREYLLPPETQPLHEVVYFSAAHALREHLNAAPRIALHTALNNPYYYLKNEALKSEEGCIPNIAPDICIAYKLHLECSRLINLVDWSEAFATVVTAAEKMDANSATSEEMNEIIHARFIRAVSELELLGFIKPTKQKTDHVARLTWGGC
UniProt Q86WC4: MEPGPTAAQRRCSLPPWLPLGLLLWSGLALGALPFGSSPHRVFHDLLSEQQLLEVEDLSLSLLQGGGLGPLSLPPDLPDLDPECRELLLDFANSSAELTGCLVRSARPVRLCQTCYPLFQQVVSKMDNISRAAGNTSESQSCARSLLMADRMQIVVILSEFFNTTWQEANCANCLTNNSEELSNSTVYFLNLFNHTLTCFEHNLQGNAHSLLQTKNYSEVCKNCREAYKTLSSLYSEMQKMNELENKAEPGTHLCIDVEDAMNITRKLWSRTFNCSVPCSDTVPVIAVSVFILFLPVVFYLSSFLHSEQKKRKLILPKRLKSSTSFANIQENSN
UniProt Q96E22: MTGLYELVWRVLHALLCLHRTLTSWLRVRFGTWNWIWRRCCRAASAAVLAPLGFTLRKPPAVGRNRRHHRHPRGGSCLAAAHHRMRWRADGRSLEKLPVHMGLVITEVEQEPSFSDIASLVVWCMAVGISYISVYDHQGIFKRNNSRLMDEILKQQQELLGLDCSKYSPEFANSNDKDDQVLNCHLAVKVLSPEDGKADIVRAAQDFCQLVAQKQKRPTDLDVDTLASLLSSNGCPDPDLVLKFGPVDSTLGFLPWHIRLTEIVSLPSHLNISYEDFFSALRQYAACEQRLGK
UniProt Q6GQQ9: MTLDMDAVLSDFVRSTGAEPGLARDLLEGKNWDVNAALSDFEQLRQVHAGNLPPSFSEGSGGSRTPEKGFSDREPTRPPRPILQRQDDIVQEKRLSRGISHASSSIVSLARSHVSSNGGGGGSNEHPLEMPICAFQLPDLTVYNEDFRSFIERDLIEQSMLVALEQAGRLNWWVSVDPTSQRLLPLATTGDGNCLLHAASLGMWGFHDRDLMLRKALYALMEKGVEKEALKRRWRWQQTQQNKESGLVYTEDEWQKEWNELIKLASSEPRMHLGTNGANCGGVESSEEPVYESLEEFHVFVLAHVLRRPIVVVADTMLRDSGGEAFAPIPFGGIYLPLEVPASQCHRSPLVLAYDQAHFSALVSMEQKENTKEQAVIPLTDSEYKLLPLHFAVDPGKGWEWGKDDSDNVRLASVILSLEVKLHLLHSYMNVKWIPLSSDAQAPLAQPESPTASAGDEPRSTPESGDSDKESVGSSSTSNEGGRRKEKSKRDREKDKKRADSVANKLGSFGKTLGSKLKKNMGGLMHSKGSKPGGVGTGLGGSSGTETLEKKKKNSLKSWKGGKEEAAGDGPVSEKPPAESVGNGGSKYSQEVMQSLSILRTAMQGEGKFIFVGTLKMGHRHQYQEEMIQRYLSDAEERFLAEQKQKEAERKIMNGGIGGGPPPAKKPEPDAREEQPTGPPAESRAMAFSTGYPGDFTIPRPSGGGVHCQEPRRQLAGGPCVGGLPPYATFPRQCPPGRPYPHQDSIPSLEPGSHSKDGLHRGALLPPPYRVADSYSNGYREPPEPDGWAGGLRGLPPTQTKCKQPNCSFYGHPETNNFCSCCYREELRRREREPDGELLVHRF
UniProt Q8N6M0: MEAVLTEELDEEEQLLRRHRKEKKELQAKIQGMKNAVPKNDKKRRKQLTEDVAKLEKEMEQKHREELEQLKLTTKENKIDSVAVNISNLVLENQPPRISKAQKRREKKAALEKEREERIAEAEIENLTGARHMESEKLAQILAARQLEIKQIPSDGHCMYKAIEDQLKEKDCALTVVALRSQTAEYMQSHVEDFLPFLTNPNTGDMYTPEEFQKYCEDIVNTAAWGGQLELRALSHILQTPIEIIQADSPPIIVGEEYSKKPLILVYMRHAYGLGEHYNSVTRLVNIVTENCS
UniProt Q9Y530: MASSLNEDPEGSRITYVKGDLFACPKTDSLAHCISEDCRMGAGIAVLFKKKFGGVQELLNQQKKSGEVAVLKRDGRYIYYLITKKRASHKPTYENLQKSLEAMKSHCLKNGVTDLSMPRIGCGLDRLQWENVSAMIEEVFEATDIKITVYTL
UniProt Q9H074: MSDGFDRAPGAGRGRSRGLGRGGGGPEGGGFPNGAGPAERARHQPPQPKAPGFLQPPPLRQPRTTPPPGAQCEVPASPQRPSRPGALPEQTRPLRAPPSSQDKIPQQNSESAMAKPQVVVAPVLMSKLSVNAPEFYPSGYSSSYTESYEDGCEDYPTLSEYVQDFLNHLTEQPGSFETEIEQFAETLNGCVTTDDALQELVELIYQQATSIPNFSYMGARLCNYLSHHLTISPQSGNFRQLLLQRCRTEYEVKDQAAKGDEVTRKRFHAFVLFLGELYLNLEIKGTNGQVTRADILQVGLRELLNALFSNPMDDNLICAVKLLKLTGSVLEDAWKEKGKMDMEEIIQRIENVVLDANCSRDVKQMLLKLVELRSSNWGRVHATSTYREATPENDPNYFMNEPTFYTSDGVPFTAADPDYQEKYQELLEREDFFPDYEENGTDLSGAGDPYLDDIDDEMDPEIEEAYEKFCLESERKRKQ
UniProt A6NDB9: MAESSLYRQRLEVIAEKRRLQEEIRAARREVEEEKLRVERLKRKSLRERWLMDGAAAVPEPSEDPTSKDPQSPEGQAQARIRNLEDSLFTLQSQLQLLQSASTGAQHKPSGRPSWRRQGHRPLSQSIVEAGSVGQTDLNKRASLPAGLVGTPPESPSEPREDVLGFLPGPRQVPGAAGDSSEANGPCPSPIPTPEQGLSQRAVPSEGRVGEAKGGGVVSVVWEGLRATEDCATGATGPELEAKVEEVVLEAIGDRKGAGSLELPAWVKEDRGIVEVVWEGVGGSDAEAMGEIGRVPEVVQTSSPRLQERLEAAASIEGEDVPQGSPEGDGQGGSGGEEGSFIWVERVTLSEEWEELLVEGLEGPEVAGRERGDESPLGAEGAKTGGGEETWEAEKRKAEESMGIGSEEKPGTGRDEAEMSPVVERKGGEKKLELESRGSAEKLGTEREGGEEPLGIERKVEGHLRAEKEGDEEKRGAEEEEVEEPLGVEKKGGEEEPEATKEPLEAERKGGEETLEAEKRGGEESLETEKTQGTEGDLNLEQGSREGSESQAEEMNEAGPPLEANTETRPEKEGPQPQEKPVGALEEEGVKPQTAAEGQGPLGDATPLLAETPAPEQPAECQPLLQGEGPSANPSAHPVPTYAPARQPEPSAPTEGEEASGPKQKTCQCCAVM

How the values were obtained:
Assay in all cases: log2 fold change, soluble protein after heating vs DMSO (PISA); higher = thermal stabilisation; K562 lysate, 10 uM; active = over 0.2 and 3.5 SD of the protein, either way, in both replicates (recomputed)
[1] = compound: CCCS(=O)(=O)Nc1ccc(F)c(C(=O)c2c[nH]c3ncc(-c4ccc(Cl)cc4)cc23)c1F [vemurafenib]
Summary of the method: (§1)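 K562 pellets were dounce-homogenised in PBS pH 7.4 with 1 mM MgCl2, and the crude extract at 1 mg/mL protein was treated with 10 μM compound for 30 min. Aliquots were heated for 3 min across 48°C-58°C, pooled, and brought to 0.5% NP-40 at 4°C; soluble protein was the supernatant after 21,000xg for 90 min. Soluble protein was quantified by TMTpro 16plex LC-MS/MS with channel sums equalised, and reported as log2 fold change in thermal stability against DMSO controls, with values from duplicates.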

[2] = compound: CCCS(=O)(=O)Nc1ccc(F)c(C(=O)c2c[nH]c3ncc(Cl)cc23)c1F
Summary of the method: as §1

[3] = compound: CCN(CCCOc1ccc2c(Nc3cc(CC(=O)Nc4cccc(F)c4)[nH]n3)ncnc2c1)CCOP(=O)(O)O [barasertib]
Summary of the method: as §1

[4] = compound: CC[C@@H]1C(=O)N(C)c2cnc(Nc3ccc(C(=O)NC4CCN(C)CC4)cc3OC)nc2N1C1CCCC1
Summary of the method: as §1

[5] = compound: CC[C@@H]1C(=O)N(C)c2cnc(Nc3ccc(C(=O)N[C@H]4CC[C@H](N5CCN(CC6CC6)CC5)CC4)cc3OC)nc2N1C(C)C [volasertib]
Summary of the method: as §1

[6] = compound: CCn1c(C(=O)N(C2CC2)C2CC2)cc2c3c(ncn3C)c(Nc3cc(C)n(C)n3)nc21
Summary of the method: as §1

[7] = compound: CCn1cc(-c2ccnc3[nH]c(-c4cccc(CN(C)C)c4)cc23)c(-c2ccc(NC(=O)N(C)C)cc2)n1
Summary of the method: as §1

[8] = compound: CN1CCC(CNc2ccc3ncc(-c4cccc(OC(F)(F)F)c4)n3n2)CC1
Summary of the method: as §1

[9] = compound: CN1CCN(CCOc2cc(OC3CCOCC3)c3c(Nc4c(Cl)ccc5c4OCO5)ncnc3c2)CC1 [saracatinib]
Summary of the method: as §1

[10] = compound: CN1CCN(c2nc(C3=C(c4c[nH]c5ccccc45)C(=O)NC3=O)c3ccccc3n2)CC1 [sotrastaurin]
Summary of the method: as §1

[11] = compound: CN1CC[C@H](c2c(O)cc(O)c3c(=O)cc(-c4ccccc4Cl)oc23)[C@H](O)C1 [alvocidib]
Summary of the method: as §1

[12] = compound: CN1CCc2c(c3ccccc3n2Cc2ccc(C(=O)NO)cc2)C1 [Tubastatin A]
Summary of the method: as §1

[13] = compound: CNC(=O)C1=CC=CC=C1NC2=NC(=NC=C2Cl)NC3=C(C=C(C=C3)N4CCOCC4)OC
Summary of the method: as §1

[14] = compound: CNC(=O)c1ccc(Nc2ncc(C(F)(F)F)c(NCc3nccnc3N(C)S(C)(=O)=O)n2)cc1 [defactinib]
Summary of the method: as §1

[15] = compound: CNc1nc(-c2ccc3c(N)n[nH]c3c2)cc(N2C[C@@H](C(=O)NC3CCCCC3)CC[C@H]2C)n1
Summary of the method: as §1

[16] = compound: COC(=O)N[C@@H](C)CNc1nccc(-c2cn(C(C)C)nc2-c2cc(Cl)cc(NS(C)(=O)=O)c2F)n1 [encorafenib]
Summary of the method: as §1

[17] = compound: COC(=O)[C@H](CCSC)NC(=O)C1=C(C=C(C=C1)NC[C@H](CS)N)C2=CC=CC=C2
Summary of the method: as §1

[18] = compound: COc1cc(Nc2ncc3c(n2)-c2ccc(Cl)cc2C(c2c(F)cccc2OC)=NC3)ccc1C(=O)O [alisertib]
Summary of the method: as §1

[19] = compound: COc1cc2nc(-c3cc(F)ccc3O)nc(N[C@@H]3CNC[C@H]3C(C)(C)O)c2cc1OC
Summary of the method: as §1

[20] = compound: COc1cc2ncnc(Nc3ccc(F)c(Cl)c3)c2cc1OCCCN1CCOCC1 [gefitinib]
Summary of the method: as §1

Measured: log2 fold change

ORC3 isoform 2 (UniProt Q9UBD5)
inactive: [1] 0.016 | [2] -0.008 | [3] 0.022 | [4] -0.036 | [5] -0.059 | [6] -0.006 | [7] -0.063 | [8] -0.018 | [9] -0.001 | [10] 0.027 | [11] 0.006 | [12] -0.155 | [13] 0.007 | [14] 0.022 | [15] 0.035 | [16] 0.02 | [17] 0.15 | [18] 0.001 | [19] -0.009 | [20] -0.019

OSTM1 (UniProt Q86WC4)
inactive: [1] -0.006 | [2] -0.025 | [3] 0.064 | [4] -0.003 | [5] 0.027 | [6] -0.02 | [7] 0.353 | [8] -0.066 | [9] 0.008 | [10] 0.031 | [11] -0.047 | [12] 0.047 | [13] -0.001 | [14] -0.104 | [15] -0.044 | [16] 0.016 | [17] -0.1 | [18] -0.038 | [19] 0.009 | [20] -0.048

NUS1 (UniProt Q96E22)
inactive: [1] -0.026 | [2] 0.046 | [3] 0.008 | [4] 0.075 | [5] -0.004 | [6] 0.002 | [7] 0.118 | [8] -0.031 | [9] 0.085 | [10] 0.013 | [11] 0.057 | [12] -0.007 | [13] 0.048 | [14] 0.281 | [15] -0.013 | [16] -0.056 | [17] -0.124 | [18] -0.012 | [19] -0.033 | [20] 0.134

OTUD7B (UniProt Q6GQQ9)
inactive: [1] 0.033 | [2] 0.011 | [3] 0.116 | [4] -0.029 | [5] -0.049 | [6] 0.018 | [7] 0.017 | [8] -0.042 | [9] 0.015 | [10] -0.011 | [11] -0.052 | [12] -0.099 | [13] 0.005 | [14] 0.022 | [15] -0.011 | [16] 0.042 | [17] 0.049 | [18] -0.006 | [19] -0.031 | [20] 0.062

OTUD6B (UniProt Q8N6M0)
inactive: [1] 0.004 | [2] -0.002 | [3] 0.042 | [4] -0.059 | [5] -0.057 | [6] 0.022 | [7] 0.112 | [8] -0.139 | [9] 0.007 | [10] -0.033 | [11] 0.049 | [12] 0.032 | [13] 0.016 | [14] 0.026 | [15] -0.033 | [16] -0.009 | [17] 0.001 | [18] -0.029 | [19] -0.012 | [20] -0.017

OARD1 (UniProt Q9Y530)
inactive: [1] -0.011 | [2] 0.004 | [3] -0.01 | [4] -0.01 | [5] -0.031 | [6] 0.022 | [7] -0.056 | [8] -0.034 | [9] 0.006 | [10] 0.002 | [11] -0.003 | [12] -0.097 | [13] 0 | [14] 0.037 | [15] -0.11 | [16] 0.011 | [17] 0.018 | [18] 0.011 | [19] 0.028 | [20] -0.014

PAIP1 (UniProt Q9H074)
inactive: [1] -0.036 | [2] 0.015 | [3] -0.022 | [4] 0.004 | [5] 0.016 | [6] 0.014 | [7] 0.017 | [8] 0.056 | [9] -0.013 | [10] -0.029 | [11] -0.003 | [12] 0.036 | [13] 0.012 | [14] 0.004 | [15] 0 | [16] 0 | [17] -0.047 | [18] 0.001 | [19] 0.008 | [20] -0.01

Random excerpt: 2 records from the list.
PAIP1 (UniProt Q9H074)
inactive: [1] -0.036 | [2] 0.015 | [3] -0.022 | [4] 0.004 | [5] 0.016 | [6] 0.014 | [7] 0.017 | [8] 0.056 | [9] -0.013 | [10] -0.029 | [11] -0.003 | [12] 0.036 | [13] 0.012 | [14] 0.004 | [15] 0 | [16] 0 | [17] -0.047 | [18] 0.001 | [19] 0.008 | [20] -0.01

NUS1 (UniProt Q96E22)
inactive: [1] -0.026 | [2] 0.046 | [3] 0.008 | [4] 0.075 | [5] -0.004 | [6] 0.002 | [7] 0.118 | [8] -0.031 | [9] 0.085 | [10] 0.013 | [11] 0.057 | [12] -0.007 | [13] 0.048 | [14] 0.281 | [15] -0.013 | [16] -0.056 | [17] -0.124 | [18] -0.012 | [19] -0.033 | [20] 0.134

Next results:

PALM3 (UniProt A6NDB9)
inactive: [1] -0.001 | [2] 0.008 | [3] -0.033 | [4] 0.022 | [5] -0.027 | [6] -0.029 | [7] -0.132 | [8] 0.058 | [9] 0.013 | [10] -0.021 | [11] 0.022 | [12] 0.057 | [13] 0.066 | [14] -0.056 | [15] -0.009 | [16] -0.001 | [17] -0.028 | [18] -0.124 | [19] 0.02 | [20] -0.01
